Literature values in patent publication US9364497B2, “Treatment of cognitive disorders” (Isis Innovation Limited, priority 2010, dated 2016).
At least one structure is not confirmed: it was looked up by name or label, or the drawing left a doubt.

Test system: subjects with mild cognitive impairment
Settings: MCI

COc1ccc2c3c1O[C@H]1C[C@@H](O)C=C[C@@]31CCN(C)C2 [galantamine]
benefit in improving function or preventing transition to Alzheimer's: did not find any significant benefit
